These are yes or no findings as the source states them, for the method shown. Binding seen in cells or lysates may run through a third protein. Binding can be weak; no strength is given.
Target: human apolipoprotein E3 (APOE3) in APOE3 targeted replacement mouse liver (human) (UniProt P02649)
Assay: co-IP; APOE precipitated with anti-APOE antibody (sc-13521) and Protein G Sepharose from liver lysates (NP40 lysis buffer, 4 °C) of male APOE TR mice, Western blot of the eluates; mice fed ad libitum (AL) or under 30% dietary restriction (DR); interactions stronger upon DR

Chains of the proteins cited; added tags and fusions are not shown. Lines headed by an entry give the natural chain unless they say otherwise; changes in a name come on top. Residues count along the entry.
UniProt P02649, residues 19-317: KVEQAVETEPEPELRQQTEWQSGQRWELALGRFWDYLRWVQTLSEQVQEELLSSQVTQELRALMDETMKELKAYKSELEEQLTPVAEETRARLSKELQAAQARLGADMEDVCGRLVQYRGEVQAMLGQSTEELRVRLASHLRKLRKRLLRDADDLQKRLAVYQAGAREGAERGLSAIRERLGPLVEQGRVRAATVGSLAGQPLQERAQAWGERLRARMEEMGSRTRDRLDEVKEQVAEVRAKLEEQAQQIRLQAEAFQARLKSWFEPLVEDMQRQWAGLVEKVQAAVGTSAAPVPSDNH
UniProt Q60932: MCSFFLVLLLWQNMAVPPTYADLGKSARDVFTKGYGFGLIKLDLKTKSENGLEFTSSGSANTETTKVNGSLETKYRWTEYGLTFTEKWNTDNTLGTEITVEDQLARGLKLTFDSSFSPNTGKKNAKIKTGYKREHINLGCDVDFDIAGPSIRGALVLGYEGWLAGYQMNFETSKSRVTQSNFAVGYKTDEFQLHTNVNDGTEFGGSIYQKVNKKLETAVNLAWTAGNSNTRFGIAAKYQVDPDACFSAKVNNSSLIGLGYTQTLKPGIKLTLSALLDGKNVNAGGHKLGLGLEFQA

With “voltage-dependent anion-selective channel 1 (VDAC1), mouse liver (from UniProt Q60932)” the binding was “binds”.
